PubChem BioAssay AID1259254 – NCATS | 2017
Aim: 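Finding genes that stop cells copying their DNA twice in one cycle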 (primary screen). System: human HCT116 colorectal cancer cells. Reagent: single siRNA against human genes. Duration: 3 days. Measurement: 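Imaged Hoechst DNA stain sorts each cell into a cycle phase by DNA amount; per plate, G2 fraction set to 0% for non-targeting and 100% for GMNN siRNA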. Reading the numbers: G2 robust z-score and G2 cells, % of GMNN control: higher = more G2 cells, more excess DNA replication; raw share of cells in G2: higher = larger share of cells with G2 DNA content. Active means: 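Active siRNAs have a G2 robust z of 5 or more median absolute deviations over the median, which in these data means about 38% or higher of GMNN control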.
This is one part, drawn at random, of about 59,000 reagents. About 1,550 of all reagents (2.6%) count as active. 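G2 share is only a proxy for re-replication; each gene was hit by three separate siRNAs, and active genes were retested.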 Raw values are not corrected between plates. Reagents against one gene are numbered here. Not stated in the record: the amount of reagent.

gene | siRNA no. | G2 robust z-score | G2 cells, % of GMNN control | raw share of cells in G2 (%) | Outcome
CD38 | 1 | -0.942 | -3.66 | 3.66 | inactive
CD38 | 2 | 1.99 | 16.9 | 11 | inactive
CD38 | 3 | -0.918 | -3.49 | 2.89 | inactive
ZNF195 | 1 | -0.419 | 0.0193 | 3.53 | inactive
ZNF195 | 2 | 0.988 | 9.92 | 10.4 | inactive
ZNF195 | 3 | 1.67 | 14.7 | 9.51 | inactive
MED17 | 1 | 0.509 | 6.55 | 5.7 | inactive
MED17 | 2 | -0.141 | 1.97 | 6.87 | inactive
MED17 | 3 | 0.35 | 5.43 | 5.61 | inactive
PALS1 | 1 | 0.667 | 7.66 | 7.97 | inactive
PALS1 | 2 | -1.16 | -5.2 | 3.3 | inactive
PALS1 | 3 | 2.74 | 22.2 | 10.8 | inactive
AUNIP | 1 | 1.9 | 16.3 | 11.7 | inactive
AUNIP | 2 | 0.17 | 4.17 | 6.48 | inactive
AUNIP | 3 | -0.56 | -0.975 | 2.44 | inactive
NR2F1 | 1 | -0.882 | -3.24 | 4.59 | inactive
NR2F1 | 2 | -0.873 | -3.18 | 2.91 | inactive
NR2F1 | 3 | -0.831 | -2.88 | 3.56 | inactive
HDAC6 | 1 | 1.59 | 14.2 | 10.5 | inactive
HDAC6 | 2 | -0.628 | -1.45 | 4.66 | inactive
HDAC6 | 3 | -0.778 | -2.5 | 2.35 | inactive
MACROD2 | 1 | -0.167 | 1.79 | 3.23 | inactive
MACROD2 | 2 | 0.707 | 7.94 | 7.17 | inactive
MACROD2 | 3 | -0.874 | -3.18 | 2.09 | inactive
LSM10 | 1 | 0.846 | 8.92 | 5.75 | inactive
LSM10 | 2 | 0.609 | 7.25 | 7.16 | inactive
LSM10 | 3 | 0.45 | 6.13 | 4.92 | inactive
TMEM216 | 1 | 0.103 | 3.69 | 5.26 | inactive
TMEM216 | 2 | 4.66 | 35.7 | 18.1 | inactive
TMEM216 | 3 | 0.041 | 3.26 | 4.28 | inactive

Continued (3 carried over from the part before).
gene | siRNA no. | G2 robust z-score | G2 cells, % of GMNN control | raw share of cells in G2 (%) | Outcome
TMEM216 | 1 | 0.103 | 3.69 | 5.26 | inactive
TMEM216 | 2 | 4.66 | 35.7 | 18.1 | inactive
TMEM216 | 3 | 0.041 | 3.26 | 4.28 | inactive
CCDC18 | 1 | -0.0752 | 2.44 | 5.17 | inactive
CCDC18 | 2 | -0.583 | -1.14 | 3.6 | inactive
CCDC18 | 3 | 0.0353 | 3.22 | 4.67 | inactive
CIDEB | 1 | -0.14 | 1.99 | 4.61 | inactive
CIDEB | 2 | 1.02 | 10.2 | 8.39 | inactive
CIDEB | 3 | 0.715 | 8 | 5.78 | inactive
SDAD1 | 1 | 0.343 | 5.38 | 6.59 | inactive
SDAD1 | 2 | -0.0113 | 2.89 | 5.34 | inactive
SDAD1 | 3 | 0.149 | 4.02 | 4.42 | inactive
KIF5B | 1 | -0.616 | -1.37 | 3.7 | inactive
KIF5B | 2 | 0.808 | 8.65 | 8.19 | inactive
KIF5B | 3 | 0.571 | 6.99 | 8.34 | inactive
KCNE2 | 1 | -0.232 | 1.33 | 5.77 | inactive
KCNE2 | 2 | 4.09 | 31.8 | 15.5 | inactive
KCNE2 | 3 | 4.59 | 35.3 | 18.1 | inactive
MRGPRX2 | 1 | -0.893 | -3.32 | 2.25 | inactive
MRGPRX2 | 2 | 0.589 | 7.11 | 8.38 | inactive
MRGPRX2 | 3 | -0.0825 | 2.39 | 5.35 | inactive
